# What was measured:
# [1] = read-out: Maximum plasma concentration (Cmax) in patients, ref given per drug; cited from earlier work
# HepaRG cells = assay: Neutral lipids with Nile red in HepaRG cells; settings: 4 days
# Protocol: Briefly, HepaRG cells were seeded in 96-well plates at a density of 2.6 × 10^4 cells/cm^2 and were first incubated in William’s E medium supplemented with 10% FBS (50% FBS from Eurobio and 50% FBS from GE Healthcare), 100 U/mL penicillin, 100 μg/mL streptomycin, 2 mM glutamine, 5 μg/mL insulin, and 50 μM hydrocortisone hemisuccinate. […] During this 1-month period, the culture medium was renewed three times a week. […] HepaRG cells were next cultured in the same FBS/DMSO conditions and incubated for 4 days with each drug at different concentrations. Culture medium was renewed every day and all investigations were performed after 96 h (i.e., 24 h after the fourth treatment). These investigations were mostly performed in 96-well plates except for western blot analysis, for which 6-well plates were used. Experiments were carried out on passages 9 to 16. All drugs (except DPEN), etomoxir, lomitapide, tunicamycin, thapsigargin, and TUDCA were dissolved in DMSO. DPEN was dissolved in water.
# Cells were then incubated with PBS containing 0.1 μg/mL Nile red for 30 min and washed once. […] For each well, four pictures were taken at a magnification of × 20 and analyzed with Columbus software (PerkinElmer) for quantification. […] Examples of images used for neutral lipid quantification are shown in Supplementary Fig. 2.
# [2] = Maximum plasma concentration (Cmax) in patients; settings: worked out from cited Cmax in patients
smiles,measurement,setting,value
"COC(=O)C1=C(C)NC(C)=C(C(=O)OC)C1c1ccccc1[N+](=O)[O-] [NIF, nifedipine]",Cmax,[1],≤ 0.72 µM
same,Accumulation of neutral lipids (steatosis),"HepaRG cells; concentrations above 100 × Cmax (100 μM NIF, 5000 μM DPEN)",significant accumulation of neutral lipids
same,Accumulation of neutral lipids (steatosis),"HepaRG cells; selected concentrations (ATP loss < 30%, not above 100 × Cmax), vs control",did not induce steatosis
same,Concentration corresponding to 100xCmax,[2],72 µM

# From publication PMC8012331, “Drug-induced hepatic steatosis in absence of severe mitochondrial dysfunction in HepaRG cells: proof of multiple mechanism-based toxicity” (Cell Biology and Toxicology, 2020)
